The other results are listed elsewhere or left out.
Key:
Experiment in all cases: log2 fold change, soluble protein after heating vs DMSO (PISA); higher = thermal stabilisation; K562 cells, 10 uM, 30 min; active = over 0.2 and 3.5 SD of the protein, either way, in both replicates (recomputed)
[1] = compound: CN1CCN(CCOc2cc(OC3CCOCC3)c3c(Nc4c(Cl)ccc5c4OCO5)ncnc3c2)CC1 [saracatinib]
Summary of the method: (§1)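 K562 cells at 2×10^6 cells/mL were treated with 10 μM compound for 30 min. Aliquots were heated for 3 min across 48°C-58°C, pooled, and extracted in PBS with 0.5% NP-40 at 4°C; soluble protein was the supernatant after 21,000xg for 90 min. Soluble protein was quantified by TMTpro 16plex LC-MS/MS with channel sums equalised, and reported as log2 fold change in thermal stability against DMSO controls, with values from duplicates.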

Sequences of proteins named here, by UniProt entry; tags and fusion partners are left off. A change or cut given only in a name is not applied to a line headed by its entry.
UniProt Q8WUQ7: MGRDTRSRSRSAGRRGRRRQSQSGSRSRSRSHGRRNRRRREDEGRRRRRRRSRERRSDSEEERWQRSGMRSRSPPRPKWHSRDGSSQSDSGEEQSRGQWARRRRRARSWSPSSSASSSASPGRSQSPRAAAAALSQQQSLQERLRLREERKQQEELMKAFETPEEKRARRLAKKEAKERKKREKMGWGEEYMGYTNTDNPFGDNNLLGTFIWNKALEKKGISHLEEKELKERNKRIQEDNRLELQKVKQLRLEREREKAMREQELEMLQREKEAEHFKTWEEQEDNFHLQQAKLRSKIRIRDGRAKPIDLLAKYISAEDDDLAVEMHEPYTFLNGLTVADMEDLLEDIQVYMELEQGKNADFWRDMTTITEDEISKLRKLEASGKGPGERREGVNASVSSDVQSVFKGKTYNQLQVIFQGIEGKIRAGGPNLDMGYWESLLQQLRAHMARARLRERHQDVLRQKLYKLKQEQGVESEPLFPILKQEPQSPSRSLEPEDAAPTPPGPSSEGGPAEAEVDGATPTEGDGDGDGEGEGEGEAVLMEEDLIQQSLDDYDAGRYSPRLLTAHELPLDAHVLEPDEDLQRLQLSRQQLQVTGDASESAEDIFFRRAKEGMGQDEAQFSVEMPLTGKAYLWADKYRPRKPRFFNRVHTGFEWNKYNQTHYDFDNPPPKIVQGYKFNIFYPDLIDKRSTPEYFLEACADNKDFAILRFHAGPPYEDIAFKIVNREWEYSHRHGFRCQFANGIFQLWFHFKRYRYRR
UniProt P27824: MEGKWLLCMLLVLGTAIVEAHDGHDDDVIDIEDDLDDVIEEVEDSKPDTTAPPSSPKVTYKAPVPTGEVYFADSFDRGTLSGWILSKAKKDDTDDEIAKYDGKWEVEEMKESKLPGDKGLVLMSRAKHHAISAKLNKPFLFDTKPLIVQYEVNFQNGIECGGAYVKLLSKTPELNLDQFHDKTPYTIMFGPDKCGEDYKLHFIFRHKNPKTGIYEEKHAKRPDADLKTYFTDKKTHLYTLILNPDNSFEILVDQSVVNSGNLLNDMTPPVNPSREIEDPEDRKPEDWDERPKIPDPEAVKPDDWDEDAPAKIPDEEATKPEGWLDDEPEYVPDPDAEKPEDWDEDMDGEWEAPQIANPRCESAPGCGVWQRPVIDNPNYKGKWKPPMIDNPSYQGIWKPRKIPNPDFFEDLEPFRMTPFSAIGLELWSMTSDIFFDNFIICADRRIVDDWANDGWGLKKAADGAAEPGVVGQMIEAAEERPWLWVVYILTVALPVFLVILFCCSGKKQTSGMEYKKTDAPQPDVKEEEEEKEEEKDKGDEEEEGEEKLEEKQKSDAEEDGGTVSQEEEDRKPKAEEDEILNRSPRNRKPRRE
UniProt O75155: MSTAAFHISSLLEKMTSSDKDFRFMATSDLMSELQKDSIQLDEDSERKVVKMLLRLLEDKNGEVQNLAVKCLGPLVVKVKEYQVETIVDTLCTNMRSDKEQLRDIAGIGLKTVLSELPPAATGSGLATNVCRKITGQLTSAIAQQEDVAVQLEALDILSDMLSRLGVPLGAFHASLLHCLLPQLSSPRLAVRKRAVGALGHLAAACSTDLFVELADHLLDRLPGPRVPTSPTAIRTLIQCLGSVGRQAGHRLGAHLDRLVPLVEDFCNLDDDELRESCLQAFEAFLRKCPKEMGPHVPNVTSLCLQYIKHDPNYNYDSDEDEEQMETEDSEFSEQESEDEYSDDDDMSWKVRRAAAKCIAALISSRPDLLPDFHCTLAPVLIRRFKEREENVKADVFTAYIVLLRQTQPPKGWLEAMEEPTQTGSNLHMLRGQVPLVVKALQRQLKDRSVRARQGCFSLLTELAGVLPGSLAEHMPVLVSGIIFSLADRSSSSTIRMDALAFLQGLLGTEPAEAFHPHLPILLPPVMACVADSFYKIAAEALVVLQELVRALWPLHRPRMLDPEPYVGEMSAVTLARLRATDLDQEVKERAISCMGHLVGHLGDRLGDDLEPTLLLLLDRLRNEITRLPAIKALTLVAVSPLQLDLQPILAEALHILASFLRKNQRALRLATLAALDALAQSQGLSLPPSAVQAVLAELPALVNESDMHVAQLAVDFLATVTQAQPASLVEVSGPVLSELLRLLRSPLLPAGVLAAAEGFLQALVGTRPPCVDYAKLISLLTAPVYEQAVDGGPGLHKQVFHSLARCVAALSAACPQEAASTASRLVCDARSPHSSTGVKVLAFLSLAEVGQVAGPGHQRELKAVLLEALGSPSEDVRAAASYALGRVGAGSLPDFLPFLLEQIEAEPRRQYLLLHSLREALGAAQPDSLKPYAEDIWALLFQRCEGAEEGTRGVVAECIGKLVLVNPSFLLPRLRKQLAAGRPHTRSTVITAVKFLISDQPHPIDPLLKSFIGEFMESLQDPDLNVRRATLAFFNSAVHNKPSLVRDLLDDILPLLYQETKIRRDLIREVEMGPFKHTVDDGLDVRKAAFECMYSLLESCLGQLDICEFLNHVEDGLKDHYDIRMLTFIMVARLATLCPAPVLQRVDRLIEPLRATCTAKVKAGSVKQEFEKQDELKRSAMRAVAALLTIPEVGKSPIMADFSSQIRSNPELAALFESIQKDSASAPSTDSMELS
UniProt P27797, whole entry, looked up: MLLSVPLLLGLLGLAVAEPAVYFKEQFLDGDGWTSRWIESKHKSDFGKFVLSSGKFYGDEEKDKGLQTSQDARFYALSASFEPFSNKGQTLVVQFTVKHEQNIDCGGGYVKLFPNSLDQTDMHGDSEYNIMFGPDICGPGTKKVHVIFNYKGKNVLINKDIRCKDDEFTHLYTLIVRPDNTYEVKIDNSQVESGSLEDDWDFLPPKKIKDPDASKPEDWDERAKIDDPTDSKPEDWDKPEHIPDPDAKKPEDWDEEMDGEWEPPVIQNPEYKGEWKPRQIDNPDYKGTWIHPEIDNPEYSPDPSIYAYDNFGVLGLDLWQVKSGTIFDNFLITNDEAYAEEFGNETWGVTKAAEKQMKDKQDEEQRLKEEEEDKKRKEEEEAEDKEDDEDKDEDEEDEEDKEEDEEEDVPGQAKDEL
UniProt Q9Y376: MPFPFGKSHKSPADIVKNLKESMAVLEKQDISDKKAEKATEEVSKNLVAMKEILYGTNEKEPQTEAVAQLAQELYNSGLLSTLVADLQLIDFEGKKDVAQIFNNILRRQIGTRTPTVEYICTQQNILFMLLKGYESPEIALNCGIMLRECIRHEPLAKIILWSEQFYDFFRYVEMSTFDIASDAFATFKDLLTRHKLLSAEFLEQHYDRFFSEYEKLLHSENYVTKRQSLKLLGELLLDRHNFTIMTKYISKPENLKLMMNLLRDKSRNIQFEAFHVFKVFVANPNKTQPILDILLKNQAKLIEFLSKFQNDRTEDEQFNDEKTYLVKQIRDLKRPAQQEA
UniProt Q01518, whole entry, looked up: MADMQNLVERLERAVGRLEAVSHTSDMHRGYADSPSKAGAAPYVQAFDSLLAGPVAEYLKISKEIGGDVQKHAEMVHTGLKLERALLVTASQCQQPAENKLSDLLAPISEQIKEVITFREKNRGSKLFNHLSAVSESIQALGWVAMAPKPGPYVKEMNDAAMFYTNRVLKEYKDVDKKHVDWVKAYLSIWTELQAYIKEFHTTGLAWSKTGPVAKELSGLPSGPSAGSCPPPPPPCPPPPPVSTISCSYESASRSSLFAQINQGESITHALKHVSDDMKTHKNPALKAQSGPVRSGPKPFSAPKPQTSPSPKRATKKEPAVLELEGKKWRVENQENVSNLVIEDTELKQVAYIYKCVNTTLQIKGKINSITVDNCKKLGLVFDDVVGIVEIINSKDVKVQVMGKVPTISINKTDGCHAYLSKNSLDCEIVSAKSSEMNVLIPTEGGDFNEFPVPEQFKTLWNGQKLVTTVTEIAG
UniProt Q8IXQ3: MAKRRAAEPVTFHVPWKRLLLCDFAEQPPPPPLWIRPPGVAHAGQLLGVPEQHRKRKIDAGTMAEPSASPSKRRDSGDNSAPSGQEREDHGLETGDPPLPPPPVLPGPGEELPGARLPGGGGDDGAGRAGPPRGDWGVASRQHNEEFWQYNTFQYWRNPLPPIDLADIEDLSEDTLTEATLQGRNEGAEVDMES
UniProt Q96EU7: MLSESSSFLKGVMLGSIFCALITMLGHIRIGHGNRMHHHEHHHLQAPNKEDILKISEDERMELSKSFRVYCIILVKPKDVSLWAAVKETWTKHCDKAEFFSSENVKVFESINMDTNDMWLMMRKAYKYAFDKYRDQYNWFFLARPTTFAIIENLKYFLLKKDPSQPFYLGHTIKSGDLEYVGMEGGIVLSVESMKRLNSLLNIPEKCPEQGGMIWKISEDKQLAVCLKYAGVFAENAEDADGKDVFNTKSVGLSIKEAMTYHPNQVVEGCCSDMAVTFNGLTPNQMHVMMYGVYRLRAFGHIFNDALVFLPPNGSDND
UniProt Q8IYL3: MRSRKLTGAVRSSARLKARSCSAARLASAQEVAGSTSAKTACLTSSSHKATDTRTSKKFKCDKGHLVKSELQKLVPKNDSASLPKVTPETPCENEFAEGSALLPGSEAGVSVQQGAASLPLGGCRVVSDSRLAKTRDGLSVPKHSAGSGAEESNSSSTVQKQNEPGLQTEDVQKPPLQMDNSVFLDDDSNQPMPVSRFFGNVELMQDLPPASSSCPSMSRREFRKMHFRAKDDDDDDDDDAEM
UniProt Q9NS00: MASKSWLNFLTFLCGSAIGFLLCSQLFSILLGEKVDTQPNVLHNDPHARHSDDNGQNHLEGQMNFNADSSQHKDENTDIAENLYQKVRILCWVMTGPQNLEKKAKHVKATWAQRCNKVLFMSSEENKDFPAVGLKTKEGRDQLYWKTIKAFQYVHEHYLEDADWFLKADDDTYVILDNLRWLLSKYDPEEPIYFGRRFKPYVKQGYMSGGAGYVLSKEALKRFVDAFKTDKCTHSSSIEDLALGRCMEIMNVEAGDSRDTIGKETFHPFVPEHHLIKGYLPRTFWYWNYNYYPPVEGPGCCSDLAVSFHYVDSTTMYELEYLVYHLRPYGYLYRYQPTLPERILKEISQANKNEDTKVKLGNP
UniProt P07384: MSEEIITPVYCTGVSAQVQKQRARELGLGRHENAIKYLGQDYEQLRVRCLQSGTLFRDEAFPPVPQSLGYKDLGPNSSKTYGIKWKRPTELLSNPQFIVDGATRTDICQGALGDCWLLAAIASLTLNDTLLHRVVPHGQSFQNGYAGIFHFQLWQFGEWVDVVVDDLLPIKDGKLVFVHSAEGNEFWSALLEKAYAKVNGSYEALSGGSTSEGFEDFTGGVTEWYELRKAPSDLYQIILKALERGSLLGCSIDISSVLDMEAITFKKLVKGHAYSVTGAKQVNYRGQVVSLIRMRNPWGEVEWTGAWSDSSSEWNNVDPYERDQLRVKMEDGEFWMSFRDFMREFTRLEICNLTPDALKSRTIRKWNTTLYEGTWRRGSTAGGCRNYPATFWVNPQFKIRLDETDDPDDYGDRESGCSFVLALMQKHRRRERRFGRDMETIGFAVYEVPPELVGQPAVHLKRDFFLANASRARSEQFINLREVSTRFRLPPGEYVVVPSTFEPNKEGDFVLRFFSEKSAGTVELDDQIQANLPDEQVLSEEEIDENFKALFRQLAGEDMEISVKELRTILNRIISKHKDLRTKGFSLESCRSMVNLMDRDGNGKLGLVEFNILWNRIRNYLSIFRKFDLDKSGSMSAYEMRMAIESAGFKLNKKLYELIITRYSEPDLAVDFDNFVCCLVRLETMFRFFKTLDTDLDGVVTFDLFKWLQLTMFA
UniProt Q6UWU4: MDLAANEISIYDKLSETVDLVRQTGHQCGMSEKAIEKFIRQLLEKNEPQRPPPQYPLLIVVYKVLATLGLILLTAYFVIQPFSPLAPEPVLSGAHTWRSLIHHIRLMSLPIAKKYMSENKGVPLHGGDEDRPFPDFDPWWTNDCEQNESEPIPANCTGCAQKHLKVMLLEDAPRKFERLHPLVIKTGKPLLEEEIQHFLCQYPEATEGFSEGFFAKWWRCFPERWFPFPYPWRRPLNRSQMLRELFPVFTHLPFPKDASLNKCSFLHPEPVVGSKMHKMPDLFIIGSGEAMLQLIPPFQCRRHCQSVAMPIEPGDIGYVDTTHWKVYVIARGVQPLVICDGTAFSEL
UniProt P35613: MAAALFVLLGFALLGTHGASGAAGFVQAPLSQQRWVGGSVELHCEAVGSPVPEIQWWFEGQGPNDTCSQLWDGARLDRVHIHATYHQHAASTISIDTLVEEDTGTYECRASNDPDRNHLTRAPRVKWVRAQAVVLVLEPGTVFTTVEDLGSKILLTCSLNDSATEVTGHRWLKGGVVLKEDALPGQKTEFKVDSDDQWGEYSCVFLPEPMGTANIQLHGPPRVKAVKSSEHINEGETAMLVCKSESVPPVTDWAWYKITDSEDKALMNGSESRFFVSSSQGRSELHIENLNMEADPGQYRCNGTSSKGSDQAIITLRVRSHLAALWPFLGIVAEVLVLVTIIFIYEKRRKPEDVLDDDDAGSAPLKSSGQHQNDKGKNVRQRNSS

[2] = compound: CN1CCN(c2nc(C3=C(c4c[nH]c5ccccc45)C(=O)NC3=O)c3ccccc3n2)CC1 [sotrastaurin]
Summary of the method: as §1

[3] = compound: CN1CC[C@H](c2c(O)cc(O)c3c(=O)cc(-c4ccccc4Cl)oc23)[C@H](O)C1 [alvocidib]
Summary of the method: as §1

[4] = compound: CN1CCc2c(c3ccccc3n2Cc2ccc(C(=O)NO)cc2)C1 [Tubastatin A]
Summary of the method: as §1

[5] = compound: CNC(=O)C1=CC=CC=C1NC2=NC(=NC=C2Cl)NC3=C(C=C(C=C3)N4CCOCC4)OC
Summary of the method: as §1

[6] = compound: CNC(=O)c1ccc(Nc2ncc(C(F)(F)F)c(NCc3nccnc3N(C)S(C)(=O)=O)n2)cc1 [defactinib]
Summary of the method: as §1

[7] = compound: CNCc1ccc(-c2[nH]c3cc(F)cc4c3c2CCNC4=O)cc1 [rucaparib]
Summary of the method: as §1

[8] = compound: CNc1nc(-c2ccc3c(N)n[nH]c3c2)cc(N2C[C@@H](C(=O)NC3CCCCC3)CC[C@H]2C)n1
Summary of the method: as §1

[9] = compound: COC(=O)N[C@@H](C)CNc1nccc(-c2cn(C(C)C)nc2-c2cc(Cl)cc(NS(C)(=O)=O)c2F)n1 [encorafenib]
Summary of the method: as §1

[10] = compound: COC(=O)[C@H](CCSC)NC(=O)C1=C(C=C(C=C1)NC[C@H](CS)N)C2=CC=CC=C2
Summary of the method: as §1

[11] = compound: COC1=CC=C(C=C1)CN2C=CC3=C2C=C(C=C3)C(=O)NO
Summary of the method: as §1

[12] = compound: CON(C)C(=O)N1N=C(c2cc(F)ccc2F)S[C@@]1(CCCN)c1ccccc1 [filanesib]
Summary of the method: as §1

[13] = compound: CO[C@H]1C[C@@H]2CC[C@@H](C)[C@@](O)(O2)C(=O)C(=O)N2CCCC[C@H]2C(=O)O[C@H]([C@H](C)C[C@@H]2CC[C@H](n3cnnn3)[C@H](OC)C2)CC(=O)[C@H](C)/C=C(\C)[C@@H](O)[C@@H](OC)C(=O)[C@H](C)C[C@H](C)/C=C/C=C/C=C/1C [zotarolimus]
Summary of the method: as §1

[14] = compound: COc1cc(C(=O)O)ccc1NC(=O)[C@@H]1N[C@@H](CC(C)(C)C)[C@](C#N)(c2ccc(Cl)cc2F)[C@H]1c1cccc(Cl)c1F [idasanutlin]
Summary of the method: as §1

[15] = compound: COc1cc(Nc2ncc3c(n2)-c2ccc(Cl)cc2C(c2c(F)cccc2OC)=NC3)ccc1C(=O)O [alisertib]
Summary of the method: as §1

[16] = compound: COc1cc2nc(-c3cc(F)ccc3O)nc(N[C@@H]3CNC[C@H]3C(C)(C)O)c2cc1OC
Summary of the method: as §1

[17] = compound: COc1cc2ncnc(Nc3ccc(F)c(Cl)c3)c2cc1OCCCN1CCOCC1 [gefitinib]
Summary of the method: as §1

[18] = compound: COc1cccc2cc(-c3nc([C@H]4CC[C@H](C(=O)O)CC4)n4ncnc(N)c34)[nH]c12
Summary of the method: as §1

[19] = compound: CS(=O)(=O)CCNCc1ccc(-c2ccc3ncnc(Nc4ccc(OCc5cccc(F)c5)c(Cl)c4)c3c2)o1 [lapatinib]
Summary of the method: as §1

[20] = compound: CS(=O)(=O)N1CCN(Cc2cc3nc(-c4cccc5[nH]ncc45)nc(N4CCOCC4)c3s2)CC1 [pictilisib]
Summary of the method: as §1

Measured: log2 fold change

CACTIN isoform 2 (UniProt Q8WUQ7)
inactive: [1] -0.015 | [2] -0.041 | [3] 0.07 | [4] 0.034 | [5] -0.103 | [6] -0.066 | [7] 0.007 | [8] -0.007 | [9] 0.099 | [10] 0.004 | [11] 0.148 | [12] 0.088 | [13] -0.082 | [14] 0.135 | [15] 0.009 | [16] 0.002 | [17] -0.124 | [18] 0.146 | [19] 0.016 | [20] 0.049

CANX isoform 2 (UniProt P27824)
inactive: [1] -0.067 | [2] -0.057 | [3] 0.067 | [4] -0.018 | [5] 0.021 | [6] 0.076 | [7] 0.003 | [8] -0.002 | [9] 0.064 | [10] 0.04 | [11] -0.041 | [12] 0.022 | [13] 0.014 | [14] 0.044 | [15] -0.087 | [16] -0.017 | [17] 0.01 | [18] -0.041 | [19] 0.041 | [20] -0.008

CAND2 (UniProt O75155)
inactive: [1] 0.067 | [2] 0.01 | [3] 0.076 | [4] -0.052 | [5] -0.051 | [6] 0.009 | [7] -0.096 | [8] -0.016 | [9] -0.015 | [10] 0.045 | [11] -0.169 | [12] -0.036 | [13] -0.007 | [14] 0.083 | [15] -0.12 | [16] 0.024 | [17] 0.01 | [18] 0.014 | [19] 0.012 | [20] -0.006

CALR (UniProt P27797)
inactive: [1] -0.046 | [2] -0.043 | [3] 0.01 | [4] -0.023 | [5] 0.014 | [6] 0.042 | [7] 0.04 | [8] -0.015 | [9] 0.018 | [10] 0.018 | [11] -0.023 | [12] 0.027 | [13] 0.008 | [14] 0.051 | [15] -0.072 | [16] 0.006 | [17] 0.003 | [18] -0.001 | [19] -0.009 | [20] -0.04

CAB39 (UniProt Q9Y376)
inactive: [1] 0.028 | [2] 0.049 | [3] -0.018 | [4] -0.005 | [5] -0.01 | [6] -0.001 | [7] -0.052 | [8] -0.012 | [9] 0.006 | [10] 0.03 | [11] -0.04 | [12] -0.028 | [13] -0.007 | [14] -0.022 | [15] -0.039 | [16] 0.042 | [17] 0.009 | [18] 0.069 | [19] -0.034 | [20] 0.028

C11orf68 (UniProt Q9H3H3)
inactive: [1] 0.007 | [2] -0.002 | [3] -0.115 | [4] -0.008 | [5] -0.018 | [6] -0.088 | [7] -0.013 | [8] 0.013 | [9] -0.031 | [10] 0.006 | [11] -0.01 | [12] -0.092 | [13] -0.013 | [14] -0.022 | [15] -0.026 | [16] -0.042 | [17] 0.032 | [18] 0.046 | [19] 0.144 | [20] 0.024

2 neighbouring records from above:
CANX isoform 2 (UniProt P27824)
inactive: [1] -0.067 | [2] -0.057 | [3] 0.067 | [4] -0.018 | [5] 0.021 | [6] 0.076 | [7] 0.003 | [8] -0.002 | [9] 0.064 | [10] 0.04 | [11] -0.041 | [12] 0.022 | [13] 0.014 | [14] 0.044 | [15] -0.087 | [16] -0.017 | [17] 0.01 | [18] -0.041 | [19] 0.041 | [20] -0.008

CAND2 (UniProt O75155)
inactive: [1] 0.067 | [2] 0.01 | [3] 0.076 | [4] -0.052 | [5] -0.051 | [6] 0.009 | [7] -0.096 | [8] -0.016 | [9] -0.015 | [10] 0.045 | [11] -0.169 | [12] -0.036 | [13] -0.007 | [14] 0.083 | [15] -0.12 | [16] 0.024 | [17] 0.01 | [18] 0.014 | [19] 0.012 | [20] -0.006

(further entries)

CAP1 (UniProt Q01518)
inactive: [1] 0.001 | [2] 0 | [3] -0.049 | [4] -0.002 | [5] 0.049 | [6] 0.023 | [7] -0.057 | [8] -0.01 | [9] 0 | [10] -0.003 | [11] 0.061 | [12] -0.094 | [13] 0 | [14] 0.001 | [15] 0.003 | [16] -0.003 | [17] -0.014 | [18] 0.02 | [19] 0.007 | [20] 0.041

C9orf40 (UniProt Q8IXQ3)
inactive: [1] -0.068 | [2] 0.017 | [3] 0 | [4] 0.21 | [5] -0.043 | [6] -0.009 | [7] 0.01 | [8] 0.015 | [9] -0.004 | [10] -0.057 | [11] 0.014 | [12] 0.071 | [13] -0.05 | [14] 0.103 | [15] -0.024 | [16] -0.008 | [17] 0.023 | [18] -0.007 | [19] 0.053 | [20] -0.085

C1GALT1C1 (UniProt Q96EU7)
inactive: [1] 0.072 | [2] 0.02 | [3] -0.032 | [4] 0.033 | [5] 0.015 | [6] 0.13 | [7] 0.063 | [8] 0.014 | [9] 0.038 | [10] -0.21 | [11] 0.041 | [12] 0 | [13] 0.065 | [14] -0.025 | [15] -0.007 | [16] 0.022 | [17] 0.032 | [18] -0.013 | [19] -0.007 | [20] 0.108

C1orf174 (UniProt Q8IYL3)
inactive: [1] 0 | [2] 0.102 | [3] 0.296 | [4] -0.017 | [5] 0.001 | [6] -0.007 | [7] -0.069 | [8] -0.068 | [9] -0.053 | [10] 0.075 | [11] -0.028 | [12] 0.131 | [13] 0.02 | [14] 0.06 | [15] -0.026 | [16] 0.039 | [17] 0.039 | [18] 0.007 | [19] 0.069 | [20] 0.043

C1GALT1 (UniProt Q9NS00)
inactive: [1] -0.026 | [2] 0.084 | [3] -0.08 | [4] 0.001 | [5] 0.07 | [6] -0.052 | [7] -0.011 | [8] 0.011 | [9] 0.04 | [10] -0.064 | [11] 0.008 | [12] 0.02 | [13] 0.025 | [14] -0.038 | [15] -0.065 | [16] 0.093 | [17] -0.064 | [18] 0.053 | [19] 0.04 | [20] 0.044

CAPN1 (UniProt P07384)
inactive: [1] 0.077 | [2] 0.019 | [3] -0.026 | [4] -0.035 | [5] -0.048 | [6] 0.003 | [7] -0.054 | [8] -0.008 | [9] -0.027 | [10] 0.01 | [11] 0.002 | [12] -0.029 | [13] 0.02 | [14] -0.016 | [15] -0.09 | [16] -0.015 | [17] 0 | [18] 0.038 | [19] 0.015 | [20] -0.011

C6orf89 isoform 2 (UniProt Q6UWU4)
inactive: [1] 0.028 | [2] 0.037 | [3] -0.018 | [4] 0.049 | [5] 0.063 | [6] -0.035 | [7] -0.076 | [8] -0.012 | [9] 0.016 | [10] 0.007 | [11] -0.105 | [12] -0.099 | [13] 0.02 | [14] 0.013 | [15] -0.043 | [16] -0.073 | [17] -0.014 | [18] 0.075 | [19] -0.007 | [20] 0.041

C20orf27 isoform 2 (UniProt Q9GZN8)
inactive: [1] -0.065 | [2] -0.033 | [3] 0.01 | [4] 0 | [5] -0.028 | [6] -0.016 | [7] 0.004 | [8] 0.006 | [9] -0.021 | [10] -0.093 | [11] 0.054 | [12] -0.117 | [13] 0.028 | [14] -0.124 | [15] -0.061 | [16] 0.036 | [17] -0.038 | [18] 0.081 | [19] 0.021 | [20] 0.174

BSG (UniProt P35613)
inactive: [1] -0.002 | [2] 0.049 | [3] 0.083 | [4] 0.001 | [5] 0.011 | [6] -0.029 | [7] -0.057 | [8] 0.053 | [9] -0.01 | [10] -0.001 | [11] -0.043 | [12] 0.048 | [13] -0.053 | [14] 0.027 | [15] -0.081 | [16] 0.042 | [17] 0.042 | [18] 0.067 | [19] -0.051 | [20] 0.077

C17orf75 (UniProt Q9HAS0)
inactive: [1] 0.035 | [2] 0.039 | [3] -0.027 | [4] -0.009 | [5] -0.055 | [6] -0.033 | [7] -0.006 | [8] -0.01 | [9] 0.026 | [10] 0.033 | [11] -0.012 | [12] -0.037 | [13] 0.067 | [14] -0.065 | [15] 0 | [16] 0.012 | [17] 0.035 | [18] 0.022 | [19] 0.08 | [20] 0.028

From the supplement of paper PMC10849652
